About 35 (0.06%) of roughly 59,000 compounds were called active. Inconclusive results, whose numbers are uncertain, are shown with a selection of clear calls. No stated cut-off is given here; in the data, active means max dye-equivalent concentration above about 10 nM; inconclusive means between about 1.1 nM and that limit; inactive means weaker than that.
test: qHTS Assay for Spectroscopic Profiling in Texas Red Spectral Region; conditions: Compound fluorescence, Texas Red channel, 547/618 nm; hits give high values
Method in brief: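 Dye-equivalent concentrations come from scaling compound signal (ex 547, em 618 nm) to six Texas Red standard concentrations run on every plate, after 15 min room-temperature incubation in pH 8.0 Tris (100 mM).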

Row | SMILES | max dye-equivalent concentration
1 | O=C(c1ccco1)[C@@H]1[C@@H]2C(=O)N(c3ccccc3)C(=O)[C@@H]2C2c3ccccc3C=CN21 (stereo partly specified) | inactive
2 | CCOc1cc(N2CCOCC2)c(OCC)cc1NC(=O)CN1C(=O)NC(Cc2ccccc2)C1=O (stereo unspecified) | inconclusive: 1.7 nM
3 | Cn1c(N2CCC(C(N)=O)CC2)nc2c1c(=O)n(Cc1ccc(Br)cc1)c(=O)n2C | inconclusive: 1.2 nM
4 | CC[C@H](c1ccccc1)c1cc(C(C)(C)C)cc(C(C)(C)C)c1O | inactive
5 | CCCCn1c(Cl)nc2c1c(=O)n(C)c(=O)n2C | inconclusive: 1.2 nM
6 | C[C@@H](COc1ccc(/C=C\c2ccccc2)cc1)[N+](C)(C)C | inactive
7 | COCCCN1C(=O)C(O)=C(C(C)=O)C1c1cccc(F)c1 (stereo unspecified) | inconclusive: 2.2 nM
8 | Cc1c(Cl)cccc1Nc1nc(N)nc(CSc2ncccn2)n1 | inconclusive: 1.6 nM
9 | Cc1cccc(NC(=O)CSc2nnc(-c3ccc(S(=O)(=O)N4CCOCC4)cc3)n2C)c1 | inconclusive: 2 nM
10 | COc1ccc(C)cc1S(=O)(=O)N1CCN(c2cccc(C(F)(F)F)c2)CC1 | inactive
11 | CC(=O)Oc1cc(OC(C)=O)c2c(=O)cc(-c3ccc(OC(C)=O)c(OC(C)=O)c3)oc2c1 | inactive
12 | Cc1nc(NC(=O)CSc2nc3cccnc3n2C2CCCCC2)sc1C | inconclusive: 1.4 nM
13 | CCOc1ccc(Cl)cc1S(=O)(=O)n1cnc2ccccc21 | inconclusive: 1.3 nM
14 | CC1(C)CC(=O)C=C(N=CC2=C(O)CC(C)(C)CC2=O)C1 | inconclusive: 1.6 nM
15 | COc1cc(/C=C(\C#N)C(=O)c2ccc(O)c(O)c2)cc(I)c1O | inactive
16 | N#CNC(N)=Nc1cccc(Cl)c1 | inconclusive: 1.4 nM
17 | Cc1ccc(-n2ncc3c2ncn2c(-c4ccncc4)nnc32)cc1 | inconclusive: 1.3 nM
18 | Cn1cccc1C(=O)N1CCN(c2cccc(C(F)(F)F)c2)CC1 | inconclusive: 2 nM
19 | Cc1ccc(S(=O)(=O)C(C#N)c2nc3ccccc3nc2N2CC(C)OC(C)C2)cc1C (stereo unspecified) | inconclusive: 1.7 nM
20 | O=S(NCc1ccccc1)C12CC3CC(CC(C3)C1)C2 (stereo unspecified) | inconclusive: 1.9 nM
21 | CC12CCC(=O)N1c1c(sc3nc(N4CCOCC4)c4c(c13)CCCC4)C(=O)N2 (stereo unspecified) | inconclusive: 1.1 nM
22 | CCCCOC(=O)Nc1nnc(-c2ccccc2OC)s1 | inconclusive: 1.1 nM

Row | SMILES | max dye-equivalent concentration
23 | O=C(O)[C@@H]1CCCN[C@H]1C(=O)O | inconclusive: 1.4 nM
24 | CCN1CCc2nc(SCC(=O)Nc3ccc(OC)cc3)c(C#N)cc2C1 | inconclusive: 1.4 nM
25 | COc1ccccc1-c1nnc(N(C)C(=O)C2CCCO2)s1 (stereo unspecified) | inconclusive: 2.2 nM
26 | CCCn1nnc(NC(=O)c2ccccc2Cl)n1 | inconclusive: 1.2 nM
27 | Cc1sc(NC(=O)CSc2nc(N)n(CC(=O)c3ccccc3)n2)c(C#N)c1C | inconclusive: 1.7 nM
28 | CCCC1C2CN(C(C)C)CC=C2C(C#N)=C(N)C1(C#N)C#N (stereo unspecified) | inconclusive: 1.2 nM
29 | c1ccc2c(c1)nc1n2CN(Cc2ccc3c(c2)OCO3)CN1 | inconclusive: 1.1 nM
30 | CCN(CCNC(=O)C1CCCN(Cc2nc(-c3ccc(OC)cc3)oc2C)C1)c1ccccc1 (stereo unspecified) | inconclusive: 1.3 nM
31 | CCOC(=O)Cc1nnc(Nc2cccc(O)c2)c2ccccc12 | inconclusive: 1.2 nM
32 | CC1(C)CC(=O)c2cc(C(=O)N3CCCCC3)c(=O)n(-c3ccc(Cl)cc3)c2C1 | inconclusive: 1.4 nM
33 | CCOc1ccccc1NC(=O)N1C2CCCC1CC(NC(=O)C1CC1)C2 (stereo unspecified) | inconclusive: 1.7 nM
34 | CC(C)C(c1nnnn1Cc1ccco1)N1CCN(c2cccc(Cl)c2)CC1 (stereo unspecified) | inconclusive: 2.1 nM
35 | Cc1nc(NC(=O)CSc2ccccc2N)sc1C | inconclusive: 1.1 nM
36 | COc1ccccc1Oc1ccc2c(c1)C(=O)N(c1ccc(O)cc1)C2=O | inconclusive: 1.3 nM
37 | COc1cccc(OC)c1C(=O)N1CCN(c2ccccn2)CC1 | inconclusive: 1.1 nM
38 | CN(C)/C=N/c1c(C(=O)NCc2ccccc2)nnn1Cc1ccccc1 | inconclusive: 2.5 nM
39 | COCCn1nnnc1CN1CCC(NC(=O)Nc2cccc(OC)c2)CC1 | inconclusive: 1.5 nM
40 | COC(=O)c1c(-n2cnnn2)sc(C)c1C | inconclusive: 1.3 nM
41 | CCOC(=O)C1C(=O)CC(=O)CC1CC(C)SCC (stereo unspecified) | inconclusive: 1.9 nM
42 | C=CCn1c(SCC(=O)Nc2c(C)cccc2C)nnc1-c1ccncc1 | inconclusive: 1.2 nM
43 | NC(=O)c1ccc(-n2nnnc2SCC(=O)Nc2ccc(N3CCOCC3)c(Cl)c2)cc1 | inconclusive: 1.1 nM
44 | Cc1onc(-c2ccccc2Cl)c1C(=O)Nc1ccc(-n2nncc2C(C)(C)C)cc1 | inconclusive: 1.2 nM

Row | SMILES | max dye-equivalent concentration
45 | COc1ccc(S(=O)(=O)N2CCOCC2)cc1C(C)C | inconclusive: 1.4 nM
46 | CCC(=O)Nn1c(C)nnc1C | inconclusive: 1.8 nM
47 | Cc1ccc2cccc(S(=O)(=O)Nc3ccc4c(c3)OCO4)c2n1 | inconclusive: 1.4 nM
48 | C1CCN(c2nc(N3CCCC3)nc(N3CCNCC3)n2)C1 | inconclusive: 1.9 nM
49 | O=C1NCCCc2c1no[n+]2[O-] | inactive
50 | Cc1ccc(NC(=O)COC(=O)CCc2c[nH]c(=O)[nH]2)cc1 | inactive
51 | CCn1c(COc2ccccc2)nnc1SCC(=O)C(C)(C)C | inconclusive: 1.3 nM
52 | Cc1nc2sc3c(c2c2nc(-c4ccco4)nn12)CCCC3 | inconclusive: 1.3 nM
53 | COc1ccc(OC)c(C2C(C(=O)c3cccs3)=C(O)C(=O)N2c2cc(C)on2)c1 (stereo unspecified) | inconclusive: 1.8 nM
54 | COc1ccc(-c2n[nH]c(C)c2-c2ccc(Cl)cc2)c(O)c1OC | inconclusive: 1.1 nM
55 | COc1ccc(-c2csc3c2[N+]2=CCC=C2C3=O)cc1 | inconclusive: 1.1 nM
56 | Cc1nnc(SCC2=C(C(=O)O)N3C(=O)[C@@H](NC(=O)Cn4cnnn4)[C@@H]3SC2)s1 | inactive
57 | CCCCOc1ccc(NC2=NC3(CCCC3)N=C(N)N2)cc1 | inconclusive: 1.2 nM
58 | NCCNC(=S)S | inactive
59 | Cc1nc(NC(=O)C23CCC(C)(C(=O)O2)C3(C)C)sc1C (stereo unspecified) | inconclusive: 1.5 nM
60 | Cc1nc(SCc2ccccc2C)n[nH]1 | inconclusive: 1.3 nM
61 | O=C1CCCCC1Sc1nnc(Cc2cccs2)n1CCc1ccccc1 (stereo unspecified) | inconclusive: 1.6 nM
62 | Cc1ccc(-n2c(SCC(=O)Nc3ccc4c(c3)OCO4)nnc2-c2ccoc2C)cc1 | inconclusive: 1.1 nM
63 | COc1ccccc1-c1cc(N(C)Cc2ccco2)ncn1 | inconclusive: 1.2 nM
64 | COc1ccccc1NC(=O)N1CCCC1C(=O)NC1CCCCC1 (stereo unspecified) | inconclusive: 1.5 nM
65 | CCc1ccccc1-n1c(SCC(=O)Nc2ccc3c(c2)OCCO3)nc2[nH]ncc2c1=O | inconclusive: 1.1 nM
66 | Cc1nc(NC(=O)CN2CCOCC2)sc1-c1ccccc1 | inconclusive: 1.2 nM

An excerpt from above in order of number of heavy atoms, smallest number first.
Row | SMILES | max dye-equivalent concentration
55 | COc1ccc(-c2csc3c2[N+]2=CCC=C2C3=O)cc1 | inconclusive: 1.1 nM
56 | Cc1nnc(SCC2=C(C(=O)O)N3C(=O)[C@@H](NC(=O)Cn4cnnn4)[C@@H]3SC2)s1 | inactive
65 | CCc1ccccc1-n1c(SCC(=O)Nc2ccc3c(c2)OCCO3)nc2[nH]ncc2c1=O | inconclusive: 1.1 nM

The list continues.

Row | SMILES | max dye-equivalent concentration
67 | CC(C)c1nnc(NC(=O)C2CCN(c3nc4ccccc4s3)CC2)s1 | inconclusive: 1.6 nM
68 | CC(=O)OCC(=O)[C@@]1(O)CC[C@@H]2[C@@H]3CCC4=CC(=O)CC[C@@]4(C)[C@H]3C(=O)C[C@]21C | inconclusive: 1.1 nM
69 | Cc1onc(-c2c(F)cccc2Cl)c1C(=O)Nc1nnc(C2CC2)s1 | inconclusive: 1.6 nM
70 | Cc1ccccc1-c1nc(CN2CCC(C(=O)NCCC3=CCCCC3)CC2)c(C)o1 | inconclusive: 1.5 nM
71 | Cc1cc(=O)[nH]c(SCCOc2ccc3c(c2)CCC3)n1 | inactive
72 | Cc1nc(NC2=NCN(Cc3cccnc3)CN2)nc2ccccc12 | inconclusive: 1.3 nM
73 | CC1=C(C(=O)Nc2ccc(Cl)cc2)C(c2ccco2)NC(=O)N1 (stereo unspecified) | inconclusive: 1.3 nM
74 | COCCNC(=O)Cn1cnc2sc(C)c(S(=O)(=O)N3CCC(C)CC3)c2c1=O | inconclusive: 1.5 nM
75 | CO[C@@H](NC(N)=O)C(=O)O | inconclusive: 1.2 nM
76 | O=C(Nc1ccc(S(=O)(=O)N2CCOCC2)cc1)c1ccc(Cl)s1 | inconclusive: 1.1 nM
77 | Cc1ccc(-c2ccc(CCC(=O)O)n2NC(=O)c2ccco2)cc1 | inconclusive: 1.3 nM
78 | CN(N=O)C(=O)N[C@H]1[C@@H](O)[C@H](O)[C@H](CO)O[C@@H]1O | inconclusive: 1.4 nM
79 | CCOC(=O)N1CCN(C(=O)Cn2ncn3nc(-c4cccs4)cc3c2=O)CC1 | inconclusive: 1.9 nM
80 | CCNC(=O)NC(=O)CSc1ccc(NC(C)=O)cc1 | inconclusive: 1.5 nM
81 | COc1ccc(C2C3=C(CC(C)(C)CC3=O)Oc3ncn4nc(-c5cccnc5)nc4c32)cc1 (stereo unspecified) | inconclusive: 1.1 nM
82 | CCOc1ccccc1OCCCCN1CCCC1 | inconclusive: 1.8 nM
83 | CCn1c(SCC(=O)c2cc(OC)ccc2OC)nnc1-c1ccncc1 | inconclusive: 1.2 nM
84 | CCN1CCC[C@@H](OC(=O)C(c2ccccc2)c2ccccc2)C1 | inconclusive: 1.6 nM
85 | CCCCC#Cc1nc(N)c2ncn([C@@H]3O[C@@H](C(=O)NCC)[C@H](O)[C@@H]3O)c2n1 | inactive
86 | O=C(CCCn1c(=O)[nH]c2cc(Cl)ccc2c1=O)NCCCN1CCCC1 | inconclusive: 1.2 nM
